For the assay, the system named is P388 leukemia ip, CD2F1 mice, survival T/C. Briefly: NCI In Vivo Anticancer Drug Screen. Data for tumor model P388 Leukemia (intraperitoneal) in CD2F1 (CDF1) mice. Particulars: T/C endpoint: median survival time, higher T/C = longer survival.
Setting [1] is: dose: 120.0 mg/kg/injection, schedule: Q01DX005 (ip), vehicle: saline with Tween-80.
[2] abbreviates: dose: 400.0 mg/kg/injection, schedule: Q04DX003 (ip), vehicle: saline with Tween-80.
[3] abbreviates: dose: 100.0 mg/kg/injection, schedule: Q04DX003 (ip), vehicle: Klucel (hydroxypropylcellulose) (HPC).

Each structure is given as a SMILES string. The list does not hold the whole screen: it is rich in T/C values a quarter to a half above the control, in often repeated tests (any T/C) and in doses without a T/C. Other doses and runs of a compound stand elsewhere. T/C: endpoint of the treated group in % of that of the vehicle group. Some doses have a count of surviving animals in place of a T/C: the source files T/C as zero there, which appears to mark a toxic dose or a test without result, not a measured value. Some doses without a T/C left all or most animals alive at the check, yet need not have been tolerated: survival well below the control is almost never listed, so the zero probably covers shortened survival too. Survivors were counted at the toxicity check, usually on the fifth day, unless a day is given; later deaths do not show. Schedule codes are those of the source, read here as Q, the interval in days (D) or hours (H), X, the number of doses. Where survival is the endpoint, this PubChem deposit counts one and a half times the control or more as active, and values a quarter to a half above the control carry no call in these data; other NCI protocols may use other cut-offs. Some doses were run more than once; the values are given in rising order. Some T/C values carry the count of animals alive at the toxicity check (mostly the fifth day); without a count, all were alive then.

In the case of `CC1(C)OCC(CO)(Nc2nc(N3CC3)nc(N3CC3)n2)CO1`, the T/C (dose: 0.62 mg/kg/injection, schedule: Q01DX009 (ip), vehicle: saline) is 132 % of control. The survivor count is recorded as 10 of 10 (dose: 10.0 mg/kg/injection, schedule: Q01DX009 (ip), vehicle: saline); 10 of 10 (dose: 20.0 mg/kg/injection, schedule: Q01DX009 (ip), vehicle: saline); 2 of 10 (dose: 40.0 mg/kg/injection, schedule: Q01DX009 (ip), vehicle: saline).

Turning to `COC(=O)C1c2cc3c(c(O)c2C(O)CC1(C)O)C(=O)c1c(O)cc2c(c1C3=O)OC1OC2(C)C(O)C(N(C)C)C1O` (centres undefined), the survivor count (dose: 400.0 mg/kg/injection, schedule: Q01DX010 (ip), vehicle: saline) was 0 of 6.

In the case of `Cc1cc2nc(CC(=O)c3ccncc3)c(=O)[nH]c2cc1C`, the survivor count (dose: 240.0 mg/kg/injection, schedule: Q01DX005 (ip), vehicle: saline with Tween-80) is on record as 1 of 6.

On to `c1ccc(-c2cc3c(cc4c5nncn5ncn34)o2)cc1`, for which the survivor count is on record as 6 of 6 (dose: 60.0 mg/kg/injection, schedule: Q01DX005 (ip), vehicle: saline with Tween-80) and 6 of 6 under setting [1].

With `Cc1cccc(/C=N\N=C\c2cccc(C)n2)n1`, the survivor count (dose: 400.0 mg/kg/injection, schedule: Q01DX009 (ip), vehicle: saline with Tween-80) is listed as 5 of 6.

Regarding `CCOC(=O)c1c(C(=O)OC)nc2n1-c1ccccc1OC2`, the survivor count under setting [1] is given as 6 of 6.

`CN1CCCC2Cc3ccccc3CC21` (centres undefined): the survivor count is 5 of 6 (dose: 200.0 mg/kg/injection, schedule: Q04DX002 (ip), vehicle: Klucel (hydroxypropylcellulose) (HPC)) and 5 of 6 (dose: 400.0 mg/kg/injection, schedule: Q04DX002 (ip), vehicle: Klucel (hydroxypropylcellulose) (HPC)).

For `CN(C)/N=C/c1c[nH]c2ccccc12`, the survivor count reads like this: (dose: 200.0 mg/kg/injection, schedule: Q01DX009 (ip), vehicle: Klucel (hydroxypropylcellulose) (HPC)) 5 of 6; (dose: 400.0 mg/kg/injection, schedule: Q01DX009 (ip), vehicle: Klucel (hydroxypropylcellulose) (HPC)) 0 of 6.

Consider `COc1ccc(OC)c(NC(=O)C2=C(C)NC(C)=C(C(=O)Nc3cc(OC)ccc3OC)C2c2cccc([N+](=O)[O-])c2)c1`, for which the survivor count (dose: 60.0 mg/kg/injection, schedule: Q01DX005 (ip), vehicle: Klucel (hydroxypropylcellulose) (HPC)) is listed as 6 of 6; the survivor count (dose: 120.0 mg/kg/injection, schedule: Q01DX005 (ip), vehicle: Klucel (hydroxypropylcellulose) (HPC)) is recorded as 6 of 6; the survivor count (dose: 240.0 mg/kg/injection, schedule: Q01DX005 (ip), vehicle: Klucel (hydroxypropylcellulose) (HPC)) was 6 of 6.

For the compound `CCC[CH2][Sn]1([CH2]CCC)[O]C(=O)C[S]1`, the T/C is 125 % of control (dose: 3.0 mg/kg/injection, schedule: Q01DX009 (ip), vehicle: saline with Tween-80); 141 % of control (dose: 3.0 mg/kg/injection, schedule: Q01DX009 (ip), vehicle: saline); 145 % of control (dose: 3.0 mg/kg/injection, schedule: Q04DX003 (ip), vehicle: saline with Tween-80); 145 % of control [5 of 6 alive] (dose: 4.5 mg/kg/injection, schedule: Q01DX009 (ip), vehicle: saline with Tween-80). Besides, the survivor count is on record as 4 of 6 (dose: 6.25 mg/kg/injection, schedule: Q04DX003 (ip), vehicle: saline with Tween-80); 0 of 6 (dose: 12.5 mg/kg/injection, schedule: Q04DX003 (ip), vehicle: saline with Tween-80); 0 of 6 (dose: 25.0 mg/kg/injection, schedule: Q04DX003 (ip), vehicle: saline with Tween-80); 0 of 6 (dose: 100.0 mg/kg/injection, schedule: Q04DX003 (ip), vehicle: saline with Tween-80); 0 of 6 (dose: 200.0 mg/kg/injection, schedule: Q04DX003 (ip), vehicle: saline with Tween-80); 0 of 6 under setting [2].

`Cc1ccc(OP(=O)(Oc2ccc(C)cc2)Oc2ccc(C)cc2)cc1.Cc1ccc(OP(=O)(Oc2ccc(C)cc2)Oc2ccc(C)cc2)cc1.[Cl][Ni][Cl]`: the survivor count runs as follows: (dose: 50.0 mg/kg/injection, schedule: Q04DX003 (ip), vehicle: Klucel (hydroxypropylcellulose) (HPC)) 0 of 6; under setting [3], 0 of 6; (dose: 200.0 mg/kg/injection, schedule: Q04DX003 (ip), vehicle: Klucel (hydroxypropylcellulose) (HPC)) 5 of 6; (dose: 400.0 mg/kg/injection, schedule: Q04DX003 (ip), vehicle: Klucel (hydroxypropylcellulose) (HPC)) 0 of 6. Also, under setting [3], the T/C was 109, 116, 120 % of control.

Regarding `COc1cc(/C=C2\NC(=S)N(c3ccccc3)C2=O)ccc1O`, the survivor count (dose: 50.0 mg/kg/injection, schedule: Q01DX005 (ip), vehicle: saline with Tween-80) is recorded as 5 of 5.

Consider `CCC(C)(C)N=C(Nc1cccnc1)Nc1ncccn1`, for which, where the note is “dose: 400.0 mg/kg/injection, schedule: Q04DX003 (ip), vehicle: saline”, the survivor count is listed as 4 of 6.

As for `[Ni+2].[S-]CC[S-]`, the survivor count under setting [2] is 2 of 6.

`O=C1OCCCCCCOC(=O)c2ccccc2SSc2ccccc21`: the survivor count (dose: 100.0 mg/kg/injection, schedule: Q01DX001 (ip), vehicle: saline with Tween-80) was 6 of 6.

Consider `O=c1[nH]c2c([N+](=O)[O-])cccc2nc1/C=C(\O)c1cccc([N+](=O)[O-])c1`, for which the survivor count reads like this: (dose: 60.0 mg/kg/injection, schedule: Q01DX005 (ip), vehicle: Klucel + Tween-80) 6 of 6; (dose: 120.0 mg/kg/injection, schedule: Q01DX005 (ip), vehicle: Klucel + Tween-80) 5 of 6; (dose: 240.0 mg/kg/injection, schedule: Q01DX005 (ip), vehicle: Klucel + Tween-80) 1 of 6.

The values are drawn from PubChem BioAssay AID330 (DTP/NCI, 2004).
